The test concerns the target ATR (endogenous) [human (endogenous in HEK293T and H1975)]. As to the kind of experiment: co-immunoprecipitation (IP: FLAG) and immunoblotting. Conditions: HEK293T cells; parent: 1. A general note: Immunoblotting shows a protein as a band on a membrane.
Take “FLAG-tagged FOXP1 (wild type, full length) mutant R465T [human] / ATR (endogenous) [human (endogenous in HEK293T and H1975)] chain 1 R465T”: the ratio to parent turned out to be 0.3.
For the substance “FLAG-tagged FOXP1 (wild type, full length) mutant R514H [human] / ATR (endogenous) [human (endogenous in HEK293T and H1975)] chain 1 R514H”, the ratio to parent is 0.66.
As to “FLAG-tagged FOXP1 (wild type, full length) mutant R465G [human] / ATR (endogenous) [human (endogenous in HEK293T and H1975)] chain 1 R465G”, the ratio to parent amounted to 0.56.
For “FLAG-tagged FOXP1 (wild type, full length) mutant R514C [human] / ATR (endogenous) [human (endogenous in HEK293T and H1975)] chain 1 R514C”, the ratio to parent turned out to be 0.72.

The values are drawn from PMC11729909.
